According to US20130053305A1 (UNIVERSIDAD DE BARCELONA, priority 2010, published 2013):

Tests used:
[1] = general procedure: Fmoc solid-phase peptide synthesis; Fmoc-Rink resin (0.47 mmole/g); Clorotrytil chloride resin (0.6 mmole/g) for Example 6; HBTU/DIEA; details: whole synthesis; for final HPLC purity: area integration of HPLC trace
[2] = general procedure: Fmoc solid-phase peptide synthesis; chlorotrityl chloride resin; HBTU/DIEA; details: whole synthesis
[3] = scale of the general procedure 0.282 mmole (Example 1), 0.48 mmole (Example 6)

Substance | final HPLC purity [1, 3] | also measured
Nonanoyl-Arg-Thr-Dab-Cyclo(4-10)[Dab-Dab-DPhe-Leu-Arg-Dab-Thr] | >91'8% | 
Nonanoyl-Arg-Thr-Dab-Cyclo(S—S)[Cys-Dab-DLeu-Thr-Arg-Dab-Cys] | >95% | 
Nonanoyl-Arg-Thr-Dab-Cyclo(S—S)[Cys-Dab-DPhe-Gly-Arg-Dab-Cys] | >95% | 
Nonanoyl-Arg-Thr-Dab-Cyclo(S—S)[Cys-Dab-DPhe-Leu-Arg-Dab-Cys]-Leu-Met-Trp-Trp-Met-Leu | >95% | 
Nonanoyl-Arg-Thr-Dab-Cyclo(S—S)[Cys-Dab-DPhe-Leu-Arg-Dab-DCys] | >95% | 
Nonanoyl-Arg-Thr-Dab-Cyclo(S—S)[Cys-Dab-DPhe-Thr-Arg-Dab-Cys] | >95% | 
Nonanoyl-Arg-Thr-Dab-Cyclo(S—S)[Cys-Dab-Gly-Leu-Arg-Dab-Cys] | >95% | 
Nonanoyl-Arg-Thr-Dab-Cyclo(S—S)[Cys-Dab-Phe-Leu-Arg-Dab-Cys] | >95% | 
nonanoyl-Arg-Thr-Dab-cyclo(4-10)[Dab-Dab-DPhe-Leu-Arg-Dab-Thr] |  | isolated mass [1]: 11 mg; crude yield [1, 3]: 21%; crude mass [2]: 130 mg
